These are yes or no findings as the source states them, for the method shown. In cells and extracts the contact can be indirect. Some binding calls cover weakened binding; strength is not graded here.

By UniProt entry, the sequences of proteins in these tests, tags left out.
UniProt Q9HCE7: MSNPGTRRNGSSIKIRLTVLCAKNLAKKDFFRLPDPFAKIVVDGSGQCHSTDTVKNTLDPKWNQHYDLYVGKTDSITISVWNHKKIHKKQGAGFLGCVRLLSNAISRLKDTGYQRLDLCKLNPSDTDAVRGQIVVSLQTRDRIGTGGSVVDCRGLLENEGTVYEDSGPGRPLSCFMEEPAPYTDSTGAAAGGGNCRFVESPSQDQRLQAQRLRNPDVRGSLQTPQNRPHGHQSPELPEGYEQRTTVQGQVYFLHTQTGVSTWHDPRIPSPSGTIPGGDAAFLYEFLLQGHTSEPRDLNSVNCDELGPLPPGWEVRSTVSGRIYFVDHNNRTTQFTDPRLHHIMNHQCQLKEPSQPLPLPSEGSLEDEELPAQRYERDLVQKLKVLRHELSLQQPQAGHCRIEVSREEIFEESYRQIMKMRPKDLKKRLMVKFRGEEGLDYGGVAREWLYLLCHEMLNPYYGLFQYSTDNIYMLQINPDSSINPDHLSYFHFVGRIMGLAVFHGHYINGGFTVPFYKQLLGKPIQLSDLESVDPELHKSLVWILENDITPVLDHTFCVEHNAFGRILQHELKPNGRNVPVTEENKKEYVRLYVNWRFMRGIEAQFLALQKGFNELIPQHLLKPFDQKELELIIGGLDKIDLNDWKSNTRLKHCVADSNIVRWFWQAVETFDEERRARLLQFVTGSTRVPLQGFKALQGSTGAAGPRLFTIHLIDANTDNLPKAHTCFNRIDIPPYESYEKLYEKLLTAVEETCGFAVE
UniProt P46940: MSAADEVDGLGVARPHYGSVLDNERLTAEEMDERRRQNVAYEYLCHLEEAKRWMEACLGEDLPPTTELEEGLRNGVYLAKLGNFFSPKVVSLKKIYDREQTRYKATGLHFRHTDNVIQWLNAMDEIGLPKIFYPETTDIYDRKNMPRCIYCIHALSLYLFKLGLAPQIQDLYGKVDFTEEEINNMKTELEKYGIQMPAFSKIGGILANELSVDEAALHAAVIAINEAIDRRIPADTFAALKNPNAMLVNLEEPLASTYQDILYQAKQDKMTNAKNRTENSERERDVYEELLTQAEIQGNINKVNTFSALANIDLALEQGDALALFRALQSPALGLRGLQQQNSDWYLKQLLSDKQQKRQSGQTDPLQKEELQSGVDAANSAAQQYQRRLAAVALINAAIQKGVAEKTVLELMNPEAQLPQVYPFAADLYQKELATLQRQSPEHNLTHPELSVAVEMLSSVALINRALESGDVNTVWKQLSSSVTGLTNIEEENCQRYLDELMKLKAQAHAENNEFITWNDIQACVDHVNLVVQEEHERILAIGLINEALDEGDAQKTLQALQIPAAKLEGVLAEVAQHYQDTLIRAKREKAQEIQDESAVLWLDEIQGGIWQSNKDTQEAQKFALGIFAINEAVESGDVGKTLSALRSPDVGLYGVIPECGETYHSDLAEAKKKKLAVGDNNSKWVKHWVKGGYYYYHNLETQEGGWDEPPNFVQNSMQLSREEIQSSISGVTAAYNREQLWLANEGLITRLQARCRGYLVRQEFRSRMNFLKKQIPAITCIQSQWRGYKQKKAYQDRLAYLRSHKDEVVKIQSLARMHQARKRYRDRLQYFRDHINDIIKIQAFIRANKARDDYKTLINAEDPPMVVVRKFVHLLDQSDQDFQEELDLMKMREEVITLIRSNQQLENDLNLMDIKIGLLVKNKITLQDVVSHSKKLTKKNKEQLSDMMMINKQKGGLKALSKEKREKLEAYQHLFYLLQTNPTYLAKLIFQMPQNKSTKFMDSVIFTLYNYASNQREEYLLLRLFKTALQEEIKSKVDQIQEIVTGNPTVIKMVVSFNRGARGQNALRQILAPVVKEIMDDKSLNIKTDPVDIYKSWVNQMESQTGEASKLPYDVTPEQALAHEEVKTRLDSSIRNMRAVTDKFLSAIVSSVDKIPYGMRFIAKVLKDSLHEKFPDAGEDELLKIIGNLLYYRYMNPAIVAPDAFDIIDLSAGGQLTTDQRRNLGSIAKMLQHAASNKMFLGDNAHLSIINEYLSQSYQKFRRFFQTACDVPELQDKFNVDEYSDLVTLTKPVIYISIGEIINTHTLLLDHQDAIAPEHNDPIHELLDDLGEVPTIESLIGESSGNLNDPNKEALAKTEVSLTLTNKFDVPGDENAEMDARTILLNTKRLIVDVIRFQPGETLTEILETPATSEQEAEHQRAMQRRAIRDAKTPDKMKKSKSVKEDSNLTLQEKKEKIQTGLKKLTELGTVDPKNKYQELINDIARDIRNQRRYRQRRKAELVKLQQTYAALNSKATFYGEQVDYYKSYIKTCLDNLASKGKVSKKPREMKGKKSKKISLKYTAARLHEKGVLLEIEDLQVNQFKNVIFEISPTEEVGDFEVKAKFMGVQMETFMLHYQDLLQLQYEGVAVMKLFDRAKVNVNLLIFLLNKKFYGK

This test concerns the target SMAD specific E3 ubiquitin protein ligase 1 (Smurf1) (human (endogenous in HBMEC)) (UniProt Q9HCE7). Description: co-IP; HBMEC lysate precipitated with anti-Smurf1 antibody (IgG isotype control); Western blot with anti-IQGAP1. Background: Immunoblotting shows a protein as a band on a membrane.

For “IQ motif containing GTPase activating protein 1 (IQGAP1) (from UniProt P46940 1-1657)”, the binding result was “binds”.

The values are drawn from paper PMC5395654.
